Measurements from paper PMC4823042, “Transcription factor LSF (TFCP2) inhibits melanoma growth”.
Construct, isoform or probe ends are uncertain for at least one entry. At least one verdict rests on a figure or table, not on a statement of the authors. Where a protein sequence is shown, tags need not be part of it.

Biological target: T1, LSF (Late SV40 factor 3) (human) (UniProt Q12800)
T1 sequence (looked up, limits assumed): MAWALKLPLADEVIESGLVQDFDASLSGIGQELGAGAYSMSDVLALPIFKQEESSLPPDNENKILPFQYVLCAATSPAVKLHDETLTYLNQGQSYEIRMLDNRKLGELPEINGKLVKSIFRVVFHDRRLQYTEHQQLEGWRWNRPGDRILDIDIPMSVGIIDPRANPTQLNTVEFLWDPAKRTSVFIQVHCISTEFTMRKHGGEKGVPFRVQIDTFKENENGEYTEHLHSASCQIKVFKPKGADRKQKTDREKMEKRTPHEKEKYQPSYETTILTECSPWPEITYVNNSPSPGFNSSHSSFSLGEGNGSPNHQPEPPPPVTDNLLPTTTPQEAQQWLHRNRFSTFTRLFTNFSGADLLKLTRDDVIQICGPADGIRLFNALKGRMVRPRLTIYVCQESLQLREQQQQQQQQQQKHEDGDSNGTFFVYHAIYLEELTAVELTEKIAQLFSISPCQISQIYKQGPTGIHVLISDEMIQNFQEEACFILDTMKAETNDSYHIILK
Assay: EMSA
Details: positive control; LightShift Chemiluminescent EMSA kit per manufacturer; 7% PAGE in 0.5x TBE; binding buffer, pH and temperature not stated; protein translated in vitro; protein details: FLAG; label: biotin end label

“CTAGCCATATGGCTGGTTATGGCTGGTCAGA / GATCTCTGACCAGCCATAACCAGCCATATGG [SV40 consensus]”: binds.
